Reference: the supplement of paper PMC5949888
Most values lie at the floor of the assay. Slopes are relative: functional sequences can read slightly below zero.

System: Saccharomyces cerevisiae PS128 hsf1 delta, HSF1(1-493) fusion
Test: growth estimate (transactivation domain function in HSF1 fusion, heat-shock survival) (a.u. (slope of normalised read count over time)); higher = stronger growth at 37°C, i.e. more transactivation activity
Conditions: library: random library

Substance | growth estimate
DGTLVVG | < -0.25
ELGDSCYSGKISGQPLLGLA | < -0.25
ADHSLRRGQATLFEFLHVY | < -0.25
NWLC | < -0.25
AWGAIVSWRSVRHRGRQWLW | < -0.25
TVEGRTVIGDMSIQWC | < -0.25
NRYQTSG | < -0.25
FLGTLVLAPRGIE | < -0.25
IDCGSGSQPWDGWVIAVSTG | < -0.25
LASPSRDTSALT | < -0.25
GPS | < -0.25
VHGDTPLPKVSLST | < -0.25
QARF | < -0.25
GSQ | < -0.25
RRVARLAPKISMCIVLSQYS | -0.232
TCLCISTRRVIEATHHGKKW | < -0.25
QGLPSQP | < -0.25
LPSLGP | < -0.25
RNAPS | < -0.25
VNSQR | < -0.25
SVTARRALVCLPFSGQGKTK | -0.25
TRLGPELARRTLISYGANTP | < -0.25
GRQGR | < -0.25

Substance | growth estimate
GSMSRAFAVY | < -0.25
SGLNGQRLRFSSCYRVKAVS | < -0.25
GFLGYRYAWAFALACRLTTP | < -0.25
RRGVYRPVSRGGLSIG | < -0.25
VLSGCVGEGGMRNAFGYLSC | < -0.25
FTSEFEGLS | -0.144
RNSFAARSQYG | < -0.25
PFYSTVIDGNTDVCGCLSFI | -0.123
SQSVPMALAIILCSSRRLIH | < -0.25
HGEHR | < -0.25
TERGRS | < -0.25
ICLLFVGPSSIRNWLL | < -0.25
GIKVCWSPFQRILTNRRLLT | -0.241
ACRACIGLLTYFGQYTRRMA | < -0.25
LNARGDMPVSFSSAG | < -0.25
IRGGIKDYML | < -0.25
SPQSARIDVRAITLGDIVGR | < -0.25
SNKMIPISLA | < -0.25
PHPWDHFSPNSSRVMSFRGG | < -0.25
SAADGKRLHRSRR | < -0.25
RAALVYRKD | < -0.25
VHGVLSGSLLQGLRRAEAFQ | < -0.25
HSRAPFAVAGSDLSKNPLLA | < -0.25

A few values from the entries so far.
In growth estimate, FTSEFEGLS has the entry -0.144
In growth estimate, SQSVPMALAIILCSSRRLIH has the entry < -0.25
In growth estimate, HGEHR has the entry < -0.25
In growth estimate, SGLNGQRLRFSSCYRVKAVS has the entry < -0.25
In growth estimate, LNARGDMPVSFSSAG has the entry < -0.25
In growth estimate, SNKMIPISLA has the entry < -0.25

Additional records

Substance | growth estimate
PSDWEYLGSLSSS | < -0.25
SPLHISTSAP | < -0.25
SNTISVRVARKASNIFSSCA | < -0.25
HLLLRPLRQVVCSWVVVGVI | < -0.25
LLEQ | < -0.25
PGVPGNPRLSCVGRYSRSG | < -0.25
VDMQFCEVASCTVPRFMESI | < -0.25
VIDVCRYVGSASIEQKSASV | < -0.25
LPRTI | < -0.25
LLVPA | -0.0415
GMF | < -0.25
LPRSSRCPSGLYFA | < -0.25
ISRPLSTL | -0.243
VYQGGA | < -0.25
EQVRSSCERLYFMVGTCEYA | < -0.25
RSNVSLDGLIWTEICFSEAG | < -0.25
LVVNKLPLPRAEGRRYHDGR | < -0.25
CAGGV | < -0.25
TSQPLGAWNEQQVLDTSRAP | < -0.25
FHTPPRLAIKFFVSAS | -0.0804
RGRYTHRPRILVVAYTLRPN | < -0.25
HYPVIKVFLWQGVCSRKC | < -0.25
ASITGSLFWGESFGA | < -0.25

Substance | growth estimate
PFDTPSICEAEIRSFHCVVS | < -0.25
TRAMAILVSVA | < -0.25
VTETRRGQQPSR | < -0.25
VCGSIFRSVRSQGYTHRRND | < -0.25
VLRIGCRATGGLHSFLNYVG | < -0.25
VRGAPFCA | < -0.25
IPGTC | < -0.25
FRS | < -0.25
GLSGDVVSGNKVLYHGTVNG | < -0.25
FTERPVLATRSSSPDHSASA | < -0.25
PLGPRNQEYGCAGYVGNDKS | -0.24
LIPRPVT | < -0.25
LDRGEVRR | < -0.25
PIRTNGFVWGNARQGVRRL | < -0.25
TVSLREVYRVQNRLPERV | < -0.25
TSQVRGGSFLVRRVRHWR | < -0.25
VRLFIWPRRDLVSRRWTTPI | < -0.25
LVPGVKDCAIDRAWLCCW | < -0.25
GSTTSKFKGGIDLAARPDSA | -0.231
RRTPS | < -0.25
RWSA | < -0.25
QWNDSGERVRPAGR | < -0.25
LGTRVVD | < -0.25

Substance | growth estimate
GCAACLVNCEGLPWLST | -0.246
CLYGREKYLL | < -0.25
LTTRRGKPIRRKKVIMFNQR | < -0.25
YIAYFDSTTTTPRGFQCPA | < -0.25
DIAAPGGPCKSLGIW | < -0.25
GCLGSGTSRSDSS | < -0.25
DIEEPPWGAVTGAEITNLTR | < -0.25
VRCG | < -0.25
HFVPMIAVRN | < -0.25
FGSGSTTASCSNIWALTSQG | < -0.25
RRANRSDQVSFIIAACNFAK | < -0.25
SQSGRPYRARC | < -0.25
RPRCPLSIRDNVPRRFDTRA | < -0.25
FRGVGTTRKLFGESTIFISP | < -0.25
APSRLCNVAVFEPGAGSVST | < -0.25
DRPSCVQGLRL | < -0.25
YDRLRIVLGFYGYTNKHVGQ | < -0.25
GHGIKWVLRTWVQHRRGTGP | < -0.25
HPGPR | < -0.25
ATVRSRFKPGYPVRPCS | < -0.25
GSPYNCERVIGSRGVRRRV | < -0.25
KVHVYVYLLSRPKSIMH | < -0.25
CGPEI | < -0.25

Substance | growth estimate
QKGSTHGSLLRMWRANEQYG | < -0.25
PSSRGHCKAHMRKFCMW | < -0.25
GQC | < -0.25
FTGVYKSTLTWWINTTSIRL | < -0.25
LPAIDLSKTPFYA | -0.168
LRVS | < -0.25
SAGTELQLASFPASSILYVL | < -0.25
PVSKG | < -0.25
TKRLGLRAFRATAYHMYVGL | < -0.25
FYKSGIRRAINS | < -0.25
YSFGQDGC | < -0.25
YQKRDLLIPVRF | -0.235
LRRPVRDTTKVGVTAFSTLS | < -0.25
SCSQLD | < -0.253
CQHMDRR | < -0.25
RVRLIESRYASTR | < -0.25
PAGASVSRSRSGDSA | < -0.25
DVCVAGAECMCR | < -0.25
CTFDITMK | < -0.25
SRHPRNPRPMIFVYSARLIL | < -0.25
FEVGTCLHSTRPGRRFTTHV | < -0.25
VLAGLTASWCNWLISIAFKR | < -0.25
GRRENRKGLRNRNVTPCCEL | < -0.25

Substance | growth estimate
KRTLCNLIGRKPDPPLFPAA | -0.246
NPAHGRRLQQS | < -0.25
KCRGVQTCCTGANEEARYSR | < -0.25
WRKGLIPNPGQASMGASVTP | < -0.25
TRRQKCSGN | < -0.25
TPTRRLGTAA | < -0.25
RVSPRRTEEHQTGAIARCQA | < -0.25
LRNLGSC | < -0.25
NMVSRDLAPF | < -0.25
SCSIEAS | < -0.25
TSGGSGGARHNPAVRLWSPG | < -0.25
TTVDEQPRIKSTCGNCLCWT | 0.548
DPAYGDKDICEWTYCVKLQI | < -0.25
PTCLLVGRKSRMGLHRFVVS | < -0.25
KNGDTGWQ | < -0.25
AGGTGRTLQELCTTG | < -0.25
VPW | < -0.25
KHIRLEVISLFCFYGGVHRP | < -0.25
TRGCGLRSNLCTFPD | < -0.25
YTVVGEQAARTGQPEPPRYP | < -0.25
WGSTGHRSFREVENRNGITA | < -0.25
GAPNAGKN | < -0.25
